Assay results reported in PubChem BioAssay AID248 (DTP/NCI, 2004).
The list does not hold the whole screen: it gathers tests that were run many times, whatever their T/C, doses with no T/C, and many T/C values between a quarter and a half above the control. Other doses and runs of a compound stand elsewhere. T/C is the treated group as % of the vehicle group. Some entries give survivors of the animals treated and no T/C: the source holds a T/C of zero for them, seemingly a mark for toxic or unscored doses. Some doses without a T/C left all or most animals alive at the check, yet need not have been tolerated: survival well below the control is almost never listed, so the zero probably covers shortened survival too. Counts of survivors are from the toxicity check (mostly the fifth day) where no day follows; animals may have died later. Schedule codes are those of the source, read here as Q, the interval in days (D) or hours (H), X, the number of doses. Some entries were tested several times; the values are given in rising order. Brackets with × give the number of equal values in this list. Some schedule codes hold Z or #, which are not explained here. Some molecules as drawn cover several salts, stereoisomers or complexes of the source; a dose is that of the sample tested. For survival time, the PubChem record calls one and a half times the control and up active, and a quarter to a half above the control has no call in these data; cut-offs in other NCI protocols can differ.

Test system: L1210 leukemia ip in BDF1 mice, survival T/C
Test: NCI In Vivo Anticancer Drug Screen. Data for tumor model L1210 Leukemia (intraperitoneal) in B6D2F1 (BDF1) mice
Conditions: higher T/C = longer survival
[1] = T/C endpoint: mean survival time, dose: 400.0 mg/kg/injection, schedule: Q01DX009 (ip), vehicle: saline
[2] = T/C endpoint: mean survival time, dose: 400.0 mg/kg/injection, schedule: Q04DX003 (ip), vehicle: saline
[3] = T/C endpoint: mean survival time, dose: 300.0 mg/kg/injection, schedule: Q01DX001 (ip), vehicle: saline
[4] = T/C endpoint: mean survival time, dose: 400.0 mg/kg/injection, schedule: Q04DX003 (ip), vehicle: saline with Tween-80
[5] = T/C endpoint: mean survival time, dose: 200.0 mg/kg/injection, schedule: Q01DX001 (ip), vehicle: saline
[6] = T/C endpoint: mean survival time, dose: 400.0 mg/kg/injection, schedule: Q01DX001 (ip), vehicle: saline
[7] = T/C endpoint: mean survival time, dose: 200.0 mg/kg/injection, schedule: Q04DX003 (ip), vehicle: Klucel (hydroxypropylcellulose) (HPC)
[8] = T/C endpoint: mean survival time, dose: 400.0 mg/kg/injection, schedule: Q04DX003 (ip), vehicle: Klucel (hydroxypropylcellulose) (HPC)
[9] = T/C endpoint: mean survival time, dose: 400.0 mg/kg/injection, schedule: Q01DX001 (ip), vehicle: carboxymethylcellulose (CMC)
[10] = T/C endpoint: mean survival time, dose: 100.0 mg/kg/injection, schedule: Q01DX009 (ip), vehicle: saline with Tween-80

With COc1cccc2c1C(=O)c1c(O)c3c(c(O)c1C2=O)C[C@@](O)(/C(C)=N/NC(=O)c1ccccc1)C[C@@H]3OC1CC(N)C(O)C(C)O1 (stereo not given in full) the T/C (T/C endpoint: mean survival time, dose: 2.0 mg/kg/injection, schedule: Q04DX003 (ip), vehicle: water) was 127 % of control, the T/C (T/C endpoint: mean survival time, dose: 4.0 mg/kg/injection, schedule: Q04DX003 (ip), vehicle: water) was 139 % of control and the T/C (T/C endpoint: mean survival time, dose: 8.0 mg/kg/injection, schedule: Q04DX003 (ip), vehicle: water) was 145 % of control. The T/C (T/C endpoint: median survival time, dose: 0.5 mg/kg/injection, schedule: Q03HX008 (ip), vehicle: water) was 126 % of control, the T/C (T/C endpoint: median survival time, dose: 1.0 mg/kg/injection, schedule: Q03HX024 (ip), vehicle: water) was 126 % of control and the T/C (T/C endpoint: median survival time, dose: 1.75 mg/kg/injection, schedule: Q03HX008 (ip), vehicle: water) was 138 % of control. For the same compound, the T/C (T/C endpoint: median survival time, dose: 2.0 mg/kg/injection, schedule: Q03HX008 (ip), vehicle: water) was 136 % of control, the T/C (T/C endpoint: median survival time, dose: 2.0 mg/kg/injection, schedule: Q03HX024 (ip), vehicle: water) was 147 % of control and the T/C (T/C endpoint: median survival time, dose: 2.5 mg/kg/injection, schedule: Q08DX002 (ip), vehicle: water) was 126 % of control. The T/C (T/C endpoint: median survival time, dose: 5.0 mg/kg/injection, schedule: Q08DX002 (ip), vehicle: water) was 126 % of control, the T/C (T/C endpoint: median survival time, dose: 5.9 mg/kg/injection, schedule: Q01DX009 (ip), vehicle: water) was 127 % of control and the survivor count (T/C endpoint: median survival time, dose: 5.9 mg/kg/injection, schedule: Q03HX008 (ip), vehicle: water) was 9 of 10. For the same compound, the survivor count (T/C endpoint: median survival time, dose: 5.9 mg/kg/injection, schedule: Q03HX024 (ip), vehicle: water) was 6 of 10, the T/C (T/C endpoint: median survival time, dose: 10.0 mg/kg/injection, schedule: Q08DX002 (ip), vehicle: water) was 147 % of control and the T/C (T/C endpoint: median survival time, dose: 20.0 mg/kg/injection, schedule: Q01DX001 (ip), vehicle: water) was 127 % of control. For the same compound, the survivor count (T/C endpoint: median survival time, dose: 30.0 mg/kg/injection, schedule: Q01DX001 (ip), vehicle: water) was 9 of 10.
With COC(=O)c1ccccc1Cn1ccnc1 the survivor count [1] was 0 of 6 and 1 of 3 and the survivor count [2] was 5 of 6.
OCC(O)COc1ccc(OCc2ccccc2)cc1 (stereo not given) was tested, and the survivor count (T/C endpoint: mean survival time, dose: 100.0 mg/kg/injection, schedule: Q01DX009 (ip), vehicle: Klucel (hydroxypropylcellulose) (HPC)) was 6 of 6 and the survivor count (T/C endpoint: mean survival time, dose: 200.0 mg/kg/injection, schedule: Q01DX009 (ip), vehicle: Klucel (hydroxypropylcellulose) (HPC)) was 6 of 6.
CC(/C=N/N/C(N)=N\N)=N\N/C(N)=N/N was tested, and the survivor count (T/C endpoint: mean survival time, dose: 480.0 mg/kg/injection, schedule: Q01DX Z (ip), vehicle: methylcellulose (MC)) was 0 of 6, the survivor count (T/C endpoint: mean survival time, dose: 600.0 mg/kg/injection, schedule: Q01DX Z (oral), vehicle: methylcellulose (MC)) was 0 of 6 and the survivor count (T/C endpoint: mean survival time, dose: 720.0 mg/kg/injection, schedule: Q01DX Z (oral), vehicle: methylcellulose (MC)) was 0 of 6. The survivor count (T/C endpoint: mean survival time, dose: 840.0 mg/kg/injection, schedule: Q01DX Z (oral), vehicle: methylcellulose (MC)) was 0 of 6 and the survivor count (T/C endpoint: mean survival time, dose: 3600.0 mg/kg/injection, schedule: Q01DX Z (ip), vehicle: methylcellulose (MC)) was 0 of 6.
For CCCCC/C(=N\OC(=O)NC)C(F)(F)F, the survivor count (T/C endpoint: mean survival time, dose: 75.0 mg/kg/injection, schedule: Q01DX001 (ip), vehicle: saline) was 1 of 6, the survivor count (T/C endpoint: mean survival time, dose: 150.0 mg/kg/injection, schedule: Q01DX001 (ip), vehicle: saline) was 0 of 6 and the survivor count [3] was 0 of 6.
Clc1nc(SC2=NCCN2)c2[nH]cnc2n1 was tested, and the survivor count (T/C endpoint: mean survival time, dose: 80.0 mg/kg/injection, schedule: Q01DX009 (ip), vehicle: saline with Tween-80) was 0 of 6, the survivor count (T/C endpoint: mean survival time, dose: 100.0 mg/kg/injection, schedule: Q04DX003 (ip), vehicle: saline with Tween-80) was 0 of 6 and the survivor count (T/C endpoint: mean survival time, dose: 200.0 mg/kg/injection, schedule: Q04DX003 (ip), vehicle: saline with Tween-80) was 0 of 6. The survivor count [4] was 0 of 6.
CCOc1ccc(C(=O)C(C)CN2CCN(C)CC2)cc1 (stereo not given) was tested, and the survivor count [5] was 0 of 4 and the survivor count [6] was 0 of 4.
For CCOP(=S)(OCC)N1c2ccccc2Sc2ccccc21, the survivor count [4] was 2 of 6.
In the case of O=[N+]([O-])c1ccc2c(c1)-c1ccccc1C1=NCCN12, the survivor count [7] is reported as 5 of 6 and the survivor count [8] is reported as 0 of 6.
With CC(C)C1C(=O)N2CCCC2C2(O)OC(NC(=O)C3C=C4c5cccc6[nH]cc(c56)CC4N(C)C3)(C(C)C)C(=O)N12 (stereo not given) the survivor count (T/C endpoint: mean survival time, dose: 200.0 mg/kg/injection, schedule: Q01DX009 (ip), vehicle: saline) was 1 of 6 and the survivor count [1] was 0 of 6.
For CCSC(=O)N1c2ccc(C)cc2C=CC1C#N (stereo not given), the survivor count (T/C endpoint: mean survival time, dose: 400.0 mg/kg/injection, schedule: Q01DX009 (ip), vehicle: saline with Tween-80) was 5 of 6.
With CCc1ccc(/C=C/c2ccc[nH]2)[n+](C)c1 the survivor count (T/C endpoint: mean survival time, dose: 100.0 mg/kg/injection, schedule: Q01DX001 (ip), vehicle: carboxymethylcellulose (CMC)) was 1 of 6, the survivor count (T/C endpoint: mean survival time, dose: 200.0 mg/kg/injection, schedule: Q01DX001 (ip), vehicle: carboxymethylcellulose (CMC)) was 0 of 6 and the survivor count [9] was 0 of 6.
In the case of COc1cc(OC)c(NC(=O)Nc2cccc(Cl)c2C)cc1Cl, the T/C [10] is reported as 89 and 95 % of control and the survivor count [10] is reported as 3 of 3 and 6 of 6.
In the case of Cc1nc(N)nc(N)c1CCCc1ccccc1, the survivor count (T/C endpoint: mean survival time, dose: 12.5 mg/kg/injection, schedule: Q01DX001 (ip), vehicle: saline with Tween-80) is reported as 1 of 6, the survivor count (T/C endpoint: mean survival time, dose: 25.0 mg/kg/injection, schedule: Q01DX001 (ip), vehicle: saline with Tween-80) is reported as 0 of 6 (2×) and the survivor count (T/C endpoint: mean survival time, dose: 50.0 mg/kg/injection, schedule: Q01DX001 (ip), vehicle: saline with Tween-80) is reported as 0 of 6. The survivor count (T/C endpoint: mean survival time, dose: 100.0 mg/kg/injection, schedule: Q01DX001 (ip), vehicle: saline with Tween-80) was 0 of 6.
CCC(=O)C1(c2cccc(O)c2)CCN(C)CC1 was tested, and the survivor count [3] was 0 of 6.
Nc1ccc2c(c1)Cc1ccccc1-2 was tested, and the survivor count [4] was 0 of 3.
For CCCCNC(c1ccccc1)C(Cl)c1ccccc1 (stereo not given), the survivor count [8] was 2 of 6.
In the case of O=c1[nH]cnc2[nH]ncc12, the survivor count (T/C endpoint: mean survival time, dose: 200.0 mg/kg/injection, schedule: Q01DX001 (ip), vehicle: saline with Tween-80) is reported as 0 of 6, the survivor count [5] is reported as 2 of 4 and the survivor count [9] is reported as 1 of 4. The survivor count (T/C endpoint: mean survival time, dose: 400.0 mg/kg/injection, schedule: Q01DX001 (ip), vehicle: saline with Tween-80) was 0 of 6 and the survivor count [6] was 0 of 4.
In the case of c1ccc2ncccc2c1, the survivor count [8] is reported as 1 of 6.
In the case of CC1(OO)CC(=O)OO1 (stereo not given), the survivor count (T/C endpoint: mean survival time, dose: 100.0 mg/kg/injection, schedule: Q01DX001 (ip), vehicle: saline) is reported as 0 of 6, the survivor count [5] is reported as 0 of 6 and the survivor count [6] is reported as 0 of 6.
For CCC1(c2ccccc2)CCN(C)C1 (stereo not given), the survivor count (T/C endpoint: mean survival time, dose: 150.0 mg/kg/injection, schedule: Q01DX001 (ip), vehicle: carboxymethylcellulose (CMC)) was 0 of 6 and the survivor count (T/C endpoint: mean survival time, dose: 300.0 mg/kg/injection, schedule: Q01DX001 (ip), vehicle: carboxymethylcellulose (CMC)) was 0 of 6.
O=C1c2cccc(Cl)c2C(=O)c2c(Cl)cccc21 was tested, and the survivor count (T/C endpoint: mean survival time, dose: 200.0 mg/kg/injection, schedule: Q04DX002 (ip), vehicle: Klucel (hydroxypropylcellulose) (HPC)) was 3 of 3.
CCCCCCC1=NC(C)(C)CO1 was tested, and the survivor count [2] was 0 of 6.
With Cc1ccc(C)c(N2CCN(c3ccncc3N)CC2)c1 the survivor count (T/C endpoint: mean survival time, dose: 300.0 mg/kg/injection, schedule: Q01DX009 (ip), vehicle: saline with Tween-80) was 0 of 6.
COc1ccc2c(c1)CCC1=C2CCC(C)(C(C)=O)C1C(=O)O (stereo not given) was tested, and the survivor count [7] was 6 of 6 and the survivor count [8] was 5 of 6.
In the case of CCc1nc(N)nc(N)c1-c1ccc(Cl)cc1.[O]=[Zn], the survivor count [9] is reported as 0 of 6.
Nc1cc(SC(c2ccccc2)c2ccccc2)c(N)c(N)n1 was tested, and the survivor count (T/C endpoint: mean survival time, dose: 300.0 mg/kg/injection, schedule: Q01DX001 (ip), vehicle: DMSO) was 0 of 3.
